Among the data in PubChem BioAssay AID248 (DTP/NCI, 2004) are survivor count values, retold here.

SMILES strings stand for the structures. The list does not hold the whole screen: it is rich in T/C values a quarter to a half above the control, in often repeated tests (any T/C) and in doses without a T/C. Other doses and runs of a compound stand elsewhere. T/C: endpoint of the treated group in % of that of the vehicle group. Some doses have a count of surviving animals in place of a T/C: the source holds a T/C of zero for them, seemingly a mark for toxic or unscored doses. Some survivor counts are full or nearly so, which does not show that the dose was tolerated: the source hardly ever lists a survival T/C far under the control, and the zero likely stands for such cases as well. Counts of survivors are from the toxicity check (mostly the fifth day) where no day follows; animals may have died later. Schedule codes are those of the source, read here as Q, the interval in days (D) or hours (H), X, the number of doses. Some entries hold several experiments; their values stand side by side, smallest first.

The subject of this assay is L1210 leukemia ip in BDF1 mice, survival T/C. Briefly: NCI In Vivo Anticancer Drug Screen. Data for tumor model L1210 Leukemia (intraperitoneal) in B6D2F1 (BDF1) mice. The settings on record: T/C endpoint: mean survival time, higher T/C = longer survival.
The mark [1] stands for this setting: dose: 100.0 mg/kg/injection, schedule: Q01DX001 (ip), vehicle: saline with Tween-80.
The mark [2] stands for this setting: dose: 200.0 mg/kg/injection, schedule: Q01DX001 (ip), vehicle: saline with Tween-80.
[3] abbreviates: dose: 400.0 mg/kg/injection, schedule: Q01DX001 (ip), vehicle: saline with Tween-80.
The mark [4] stands for this setting: dose: 400.0 mg/kg/injection, schedule: Q04DX003 (ip), vehicle: saline with Tween-80.
The mark [5] stands for this setting: dose: 200.0 mg/kg/injection, schedule: Q04DX003 (ip), vehicle: saline.

In the case of `O=C1C(Cl)=C(NCc2ccccc2Cl)C(=O)c2ccccc21`, the survivor count by setting is: under setting [1], 0 of 6; under setting [2], 0 of 6; under setting [3], 0 of 6.
Regarding `N=C(N)C(N)=NCC(Br)CBr` (stereo not given), the survivor count (dose: 400.0 mg/kg/injection, schedule: Q04DX002 (ip), vehicle: saline) is 1 of 3.
In the case of `O=C(O)c1cc(O)ccc1O`, the survivor count under setting [4] is 3 of 6.
Take `CCCCCCCCCCCC[N+]1([O-])CCOCC1`: the survivor count (dose: 100.0 mg/kg/injection, schedule: Q04DX002 (ip), vehicle: saline with Tween-80) was 3 of 3.
As to `CCN(CC)CCOc1ccc(/C=C2\CCc3ccccc3C2=O)cc1`, under setting [5], the survivor count was 0 of 6.
Regarding `O=C(C=C(C(F)(F)F)C(F)(F)F)c1ccc(Cl)c([N+](=O)[O-])c1`, the survivor count is 2 of 6 (dose: 5.0 mg/kg/injection, schedule: Q01DX009 (ip), vehicle: saline with Tween-80); 3 of 6 and 4 of 6 (dose: 10.0 mg/kg/injection, schedule: Q01DX009 (ip), vehicle: saline with Tween-80); 1 of 6 (dose: 20.0 mg/kg/injection, schedule: Q01DX009 (ip), vehicle: saline with Tween-80); 0 of 6 (dose: 40.0 mg/kg/injection, schedule: Q01DX009 (ip), vehicle: saline with Tween-80); 2 of 6 (dose: 50.0 mg/kg/injection, schedule: Q01DX001 (ip), vehicle: saline with Tween-80); 1 of 6 (dose: 75.0 mg/kg/injection, schedule: Q01DX009 (ip), vehicle: saline with Tween-80). Also, the survivor count is, setting by setting: under setting [1], 0 of 6; (dose: 150.0 mg/kg/injection, schedule: Q01DX009 (ip), vehicle: saline with Tween-80) 0 of 6; under setting [2], 0 of 6; (dose: 300.0 mg/kg/injection, schedule: Q01DX009 (ip), vehicle: saline with Tween-80) 0 of 6; under setting [3], 0 of 6.
Turning to `C/C(=N/N(C)C)c1ccc(Br)cc1`, the survivor count (dose: 100.0 mg/kg/injection, schedule: Q01DX009 (ip), vehicle: Klucel (hydroxypropylcellulose) (HPC)) was 4 of 6 and the survivor count (dose: 200.0 mg/kg/injection, schedule: Q01DX009 (ip), vehicle: Klucel (hydroxypropylcellulose) (HPC)) was 3 of 6.
As to `O=C(O)c1cc2c(Br)cccc2c2cc(C(F)(F)F)ccc12`, the survivor count under setting [4] was 0 of 6.
Regarding `N#CCC[CH2][Sn]([Br])([Br])[c]1ccccc1`, the survivor count was 0 of 3 (dose: 50.0 mg/kg/injection, schedule: Q04DX003 (ip), vehicle: saline); 1 of 3 (dose: 100.0 mg/kg/injection, schedule: Q04DX003 (ip), vehicle: saline); 0 of 3 under setting [5].
With `COc1cc(/C=N\NC(=O)CNC(=O)Nc2cccc(Cl)c2)ccc1O`, under “dose: 50.0 mg/kg/injection, schedule: Q01DX009 (ip), vehicle: saline with Tween-80”, the survivor count was 3 of 3.
As to `COc1cccc(CN(C)C)c1C(O)c1ccccc1` (stereo not given), for the setting “dose: 400.0 mg/kg/injection, schedule: Q01DX001 (ip), vehicle: carboxymethylcellulose (CMC)”, the survivor count is 2 of 4.
Take `O=c1[nH][nH]c(=O)c2c1oc1c(=O)[nH][nH]c(=O)c12`: the survivor count is, setting by setting: (dose: 100.0 mg/kg/injection, schedule: Q01DX001 (ip), vehicle: saline sonified) 0 of 6; (dose: 200.0 mg/kg/injection, schedule: Q01DX001 (ip), vehicle: saline sonified) 0 of 6; (dose: 400.0 mg/kg/injection, schedule: Q01DX001 (ip), vehicle: saline sonified) 0 of 6.
Regarding `CCN(CC)CCN(C#N)Cc1ccccc1`, the survivor count is, setting by setting: (dose: 150.0 mg/kg/injection, schedule: Q01DX001 (ip), vehicle: carboxymethylcellulose (CMC)) 1 of 6; (dose: 300.0 mg/kg/injection, schedule: Q01DX001 (ip), vehicle: carboxymethylcellulose (CMC)) 0 of 6.
Regarding `CCCCC(=O)N1CC(C)OC(C)C1` (stereo not given), under “dose: 100.0 mg/kg/injection, schedule: Q01DX009 (ip), vehicle: carboxymethylcellulose (CMC)”, the survivor count is listed as 3 of 3.
Take `Cn1c(NCC[N+](C)(C)C)nc2ncncc21`: the survivor count was 1 of 6 (dose: 75.0 mg/kg/injection, schedule: Q01DX001 (ip), vehicle: saline); 0 of 6 (dose: 150.0 mg/kg/injection, schedule: Q01DX001 (ip), vehicle: saline); 0 of 6 (dose: 300.0 mg/kg/injection, schedule: Q01DX001 (ip), vehicle: saline).
